# Among all 52,000 sequences or so, about 210 (0.4%) were called active.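 How the source made its calls: active means gene whose silencing raises cell survival under the drug, median off-target-corrected z-score across its silencing RNAs 2 or more; inactive means the rest.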 The list shows a part of the results.
# Test: Resistance to Poly (ADP-Ribose) Polymerase inhibitor: Gene Identification via Genome-wide siRNA Screen
# Conditions: mouse BRCA2 R2336H ES cells, olaparib, CellTiter-Glo viability; active compounds read high
# How it was run: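 Mouse BRCA2 R2336H ES cells were reverse-transfected with siRNA (20 nM final), treated at 48 h with 500 nM olaparib, and read by CellTiter-Glo after 72 h. Scores: MAD-based z per siRNA, median per gene, seed off-target correction.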
row,Sequence,z-score
1,GCUUAGUGAGGAGAUACAATT against D8Ertd457e,inactive: -1.15
2,GGGAGAAACGCAUCUUAUCTT against Ngly1,inactive: 0.252
3,GGAAUGCAUCGAGUGAAAATT against 2810432L12Rik,inactive: -0.984
4,GCUACAGCGGAAACUUCCUTT against D11Wsu68e,inactive: -0.0239
5,GGAGAGAGUCAGAAAGAAGTT against D1Ertd578e,inactive: -0.26
6,GGAGAUGUUCCACAAGAAGTT against Cacna2d3,inactive: 0.121
7,GGGAAGUGCAUGCUCAUCUTT against Smarcal1,inactive: -2.41
8,GCUGUCCAAGUACGAGACATT against Atoh7,inactive: -1.02
9,GCCAGUUCAUACAAGAGGGTT against 1300003B13Rik,inactive: -1.36
10,GGGACUUGUCCAAUAAAGUTT against Jtv1,inactive: 0.677
11,GGAAGAACUUGUCUCUUUUTT against D330034A10Rik,inactive: -0.725
12,GCAAUUAUCGUGGUAUCCUTT against Dgat1,inactive: 1.31
13,GGCAACUGUGUUCUCACGATT against Ddx58,inactive: 2.44
14,GGUAUUCACUGUAUUUAACTT against Tm4sf3,inactive: 0.946
15,GGCCUGCUUCAAACAGUUUTT against Slc1a6,inactive: 0.731
16,UGCUGUGCAGAAAGACUAGTT against Nkx2-6,inactive: -1.38
17,CCCUAACAGAUCUCAUUGATT against D030001E08,inactive: -1.66
18,GCAAGUAAGCCUAAGGAAATT against Pcnp,inactive: 0.351
19,CCCAUUACAAUGUCACCAGTT against 1810033M07Rik,inactive: -0.516
20,GCAUUAAUGUGACAGCUACTT against Dhrs4,inactive: 1.92
21,GGUACUUUUCUCACUUCUATT against Srd5a2l,inactive: 0.709
22,GCCUCUGAUGUAAACAGGATT against 2310073E15Rik,inactive: 1.06
23,GGUGAGGUAGGUGAUGAGCTT against S100a17,inactive: 0.0699
24,CCUCAUAAAUUCACUCUCCTT against Psp,inactive: 0.0309
25,GGGAUGUCUUCCUAUACAGTT against Cope,inactive: 0.109
26,CGAGUUUAAAGUGAGAAGATT against Pit1,inactive: 0.97

row,Sequence,z-score
1,GGAGUCAGUGACAAGGCUCTT against Olfr54,inactive: 1.34
2,CGAGGGAAUGCACUACAACTT against D1Bwg1363e,inactive: -1.89
3,GGACGAAGAGGAGAAAGAGTT against AI836003,inactive: -0.825
4,GCACUGGAAUGUCAUCUCGTT against Casp3,inactive: 0.587
5,GGUAUUCCUUGCCAUUCGGTT against Stc1,inactive: -0.181
6,GCGAGGGAUAGAAGUCGUGTT against Itpk1,inactive: -0.325
7,GGAAUUUAAGGUGUUCACATT against Lcn3,inactive: 0.553
8,GGUCGAAGUGAAACCAGUCTT against Pik3r2,inactive: 0.384
9,GCAUGUUUCCCUACUAUGATT against Pet2,inactive: 1.25
10,CCUGACGAAAAUGUUUUAATT against C820005L12Rik,inactive: 0.24
11,GGGCUCCACUACCUAAUCATT against Gpr83,inactive: 1.91
12,GCUGAAACCUCAUGAGGAGTT against Ptpn9,active: 3.06
13,GGAAAAGGAAAUAAAAGAGTT against Hemgn,inactive: -0.654
14,GCGAGAAUUCUCUUCCAAUTT against Gsh2,inactive: 0.938
15,CGCAAUGUAUGAUUCAAUGTT against Mogat1,inactive: 0.0906
16,CCUAUUCCAUUGACAAUGATT against Tubb2,inactive: 0.0982
17,GGUCAUCUUUCCAGUCAGCTT against Mak3,inactive: -1.99
18,GGAUGAACCACCAUAUGUGTT against Olfr1188,inactive: -0.532
19,GGAGAACUGUCAUAUGCUUTT against Cntn3,inactive: 0.215
20,GCCUUGUACUGUGUAUAUATT against Gse1,inactive: -0.159
21,GGACUGUUACAAAUGAAGUTT against Cxcl1,inactive: 0.714
22,CCUAGUAGCCGAGAAACAUTT against Olfr1137,inactive: -0.259
23,GGCAGGACACCAUAUGGUUTT against 4930427A07Rik,inactive: -1.03
24,GGCUAUAGUUCUCUGUUUUTT against 2610528O22Rik,inactive: 0.257
25,GGAAAAGAAGAAGUCAGAATT against Clmn,inactive: 0.28
26,GGCUUCCUUUUUGAAGCUATT against AB041549,inactive: 0.779

# Five entries from above, as tab-separated lines:
row	Sequence	z-score
26	CGAGUUUAAAGUGAGAAGATT against Pit1	inactive: 0.97
1	GGAGUCAGUGACAAGGCUCTT against Olfr54	inactive: 1.34
2	CGAGGGAAUGCACUACAACTT against D1Bwg1363e	inactive: -1.89
3	GGACGAAGAGGAGAAAGAGTT against AI836003	inactive: -0.825
4	GCACUGGAAUGUCAUCUCGTT against Casp3	inactive: 0.587

# Pulled one by one from the list above:
row,Sequence,z-score
9,GCAUGUUUCCCUACUAUGATT against Pet2,inactive: 1.25
24,GGCUAUAGUUCUCUGUUUUTT against 2610528O22Rik,inactive: 0.257
14,GCGAGAAUUCUCUUCCAAUTT against Gsh2,inactive: 0.938

# Next part.

row,Sequence,z-score
1,GCUAUAGGCAAUGUGAUCUTT against Gm316,inactive: -0.342
2,CCCAGCAAAUUCAUUCUACTT against Spon2,inactive: 0.967
3,GGACUUGAACCCAGUUUGCTT against C230030N03Rik,inactive: 0.792
4,GGCACACAGUAACUUGAACTT against V1ra1,inactive: 1.09
5,GGCUUCAAUAGUUCUCCUATT against Rpl10,inactive: -2.36
6,GGCCUCUCAAAAUCUUCCUTT against Galnt11,inactive: -0.659
7,AUUCAUUGGGAAAAAUUAUTT against Olfr127,inactive: 0.609
8,GGAACAUUCUGAGAAGAAATT against Cwf19l2,inactive: -0.0286
9,GAGUUGGCUCGAAACUGCCTT against Fbxl15,inactive: 0.448
10,GGAAGUCACAGGGAUGUUGTT against Drbp1,inactive: -1.56
11,CGCUUUAUUAGAUGGGCUATT against Dlx5,inactive: 1.47
12,GCUUGCUUAUGGCCUAUUATT against 1110017I16Rik,inactive: -1.27
13,GGAAAUUCUCUACUACUGATT against Unc5d,inactive: 1.01
14,GGAACAUUUUGGAAAAGACTT against 1300017J02Rik,inactive: -0.786
15,GCCAGACACUUAAUCCCGUTT against Unc13d,inactive: -0.0528
16,GGAAAUGAAAUAGUCUCGUTT against Dpm1,inactive: 1.05
17,GGAAAAGAACCAAAGAAUGTT against 5330439B14Rik,inactive: 0.319
18,CCGAAUUUCUCCUAUUGGGTT against Olfr106,inactive: -0.409
19,GGGCUACACUUGCUGUACUTT against Gpc1,inactive: -2.24
20,GGUGUUACCAAGAGUGACUTT against 2410019G02Rik,inactive: -0.588
21,GGUGAUAGAGUAGAAGAUGTT against Hdgfrp3,inactive: -0.917
22,GGUUGUAUCAGUGAAGACATT against 3110062M04Rik,inactive: 2
23,GCCCGGUAAAGGUAUCCAUTT against Trp53bp1,active: 1.78
24,GGACAUGCUUUUAUAGAUGTT against Hist3h2a,inactive: 0.761
25,GGAUGAAGUUCUUUUUCAATT against Pdcd11,inactive: -0.445
26,GGUGCACUGAAGAACUCCATT against Olfr1494,inactive: -1.03

row,Sequence,z-score
1,GGUUCCAAUUGGAUAUUUGTT against Cysltr2,inactive: 0.466
2,CUCUCCAGACUCCUAUGUATT against Olfr1118,inactive: 1
3,GGUUGGUCUCCAAAGAUGGTT against Kcnj1,inactive: -0.292
4,GGUUCAACGCAAAGUUCGCTT against Aldh4a1,inactive: 0.02
5,GGCACUUACACGUUUGGAATT against Cry1,inactive: 1.4
6,GGAACAACUUCGUACCAUGTT against BC050789,inactive: -0.393
7,GCGGAGAAACAGGACAACATT against Prrx1,inactive: 1.68
8,GCUAUAUAAUGCUUAUGUGTT against Tpr,inactive: 0.411
9,GGAAGUUUUAUAGACAAACTT against 2810002I04Rik,inactive: 0.653
10,GGAUGGGAUGAAAAUUGAATT against Papolg,inactive: -0.794
11,CCGAGGUUUCAUAUUUCGGTT against Leng9,inactive: 1.05
12,CGUCCAGUAUACGCUGGUUTT against Cdc45l,inactive: -0.103
13,GGCCUUCGUCAUCUUCAAGTT against Snrpa,inactive: -0.553
14,GGCUGAAGUUAACAGUAAGTT against 2210415K24Rik,inactive: -0.85
15,GGGUCAACAUCAUCUAUGGTT against Olfr616,inactive: -1.61
16,GGCCCUGCAUUAUCCGAAATT against Pla2g4b,inactive: 0.888
17,GGUCAUUGCUAUUCCGUACTT against Olfr536,inactive: -0.0849
18,GGCAUGAAGCAGGAAGACATT against 2810460C24Rik,inactive: 0.515
19,GCAUCAAUAUCAUUAUUCCTT against Olfr917,inactive: -0.264
20,GGCUACAUUAGUGCCUGGUTT against Trp53rk,inactive: -0.226
21,CCAAGUACUUGAGAGAGACTT against Creb3l1,inactive: 0.45
22,GGUUGCCAUAGCUUCUCGGTT against Abcg1,inactive: 0.208
23,GGCGAGGUACUUCCUACCUTT against Nipa1,inactive: -0.188
24,GGGUUGAUUGACGAAGCCATT against Fga,inactive: 0.655
25,CGGCACCUAUGAGUCUUACTT against Cyp4x1,inactive: -2.58
26,CCUUCAUGAGUCCUCUUCATT against Gaa,inactive: 0.762
